From article PMC6894925
Read-outs that look alike come from different tables or passages of the source. These are yes or no findings as the source states them, for the method shown. In cells and extracts the contact can be indirect. These calls come from enrichment with a bait or labelling near it, and not all partners need be listed. Values belong to the molecule of their own block, whether it stands above or below them.

Amino acid sequences for entries named in this document (tags omitted). Residues count along the entry.
UniProt P28824, residues 22-928: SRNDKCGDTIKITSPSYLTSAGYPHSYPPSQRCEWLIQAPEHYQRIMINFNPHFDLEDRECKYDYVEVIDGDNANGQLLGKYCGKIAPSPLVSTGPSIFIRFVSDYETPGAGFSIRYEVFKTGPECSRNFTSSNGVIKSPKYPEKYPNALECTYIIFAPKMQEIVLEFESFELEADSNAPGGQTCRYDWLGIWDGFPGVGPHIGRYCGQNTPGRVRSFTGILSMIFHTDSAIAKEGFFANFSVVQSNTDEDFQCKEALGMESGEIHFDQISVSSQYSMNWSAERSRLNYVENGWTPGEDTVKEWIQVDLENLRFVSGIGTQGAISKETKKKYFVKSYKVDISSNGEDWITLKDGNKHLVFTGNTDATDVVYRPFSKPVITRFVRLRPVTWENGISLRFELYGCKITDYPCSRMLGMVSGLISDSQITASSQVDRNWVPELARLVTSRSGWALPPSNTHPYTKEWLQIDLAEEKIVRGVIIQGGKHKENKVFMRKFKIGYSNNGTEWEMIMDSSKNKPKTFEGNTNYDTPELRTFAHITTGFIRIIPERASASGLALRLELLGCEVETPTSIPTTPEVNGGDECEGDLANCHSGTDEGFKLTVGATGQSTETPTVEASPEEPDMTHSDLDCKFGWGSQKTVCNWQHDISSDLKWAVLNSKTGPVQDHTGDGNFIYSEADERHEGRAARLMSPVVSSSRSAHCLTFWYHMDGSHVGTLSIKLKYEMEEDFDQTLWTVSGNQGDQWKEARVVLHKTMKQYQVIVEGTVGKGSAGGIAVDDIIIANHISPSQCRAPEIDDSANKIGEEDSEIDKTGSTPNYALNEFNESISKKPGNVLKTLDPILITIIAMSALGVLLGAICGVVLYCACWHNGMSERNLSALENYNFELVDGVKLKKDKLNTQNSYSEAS
UniProt Q7ZTM9: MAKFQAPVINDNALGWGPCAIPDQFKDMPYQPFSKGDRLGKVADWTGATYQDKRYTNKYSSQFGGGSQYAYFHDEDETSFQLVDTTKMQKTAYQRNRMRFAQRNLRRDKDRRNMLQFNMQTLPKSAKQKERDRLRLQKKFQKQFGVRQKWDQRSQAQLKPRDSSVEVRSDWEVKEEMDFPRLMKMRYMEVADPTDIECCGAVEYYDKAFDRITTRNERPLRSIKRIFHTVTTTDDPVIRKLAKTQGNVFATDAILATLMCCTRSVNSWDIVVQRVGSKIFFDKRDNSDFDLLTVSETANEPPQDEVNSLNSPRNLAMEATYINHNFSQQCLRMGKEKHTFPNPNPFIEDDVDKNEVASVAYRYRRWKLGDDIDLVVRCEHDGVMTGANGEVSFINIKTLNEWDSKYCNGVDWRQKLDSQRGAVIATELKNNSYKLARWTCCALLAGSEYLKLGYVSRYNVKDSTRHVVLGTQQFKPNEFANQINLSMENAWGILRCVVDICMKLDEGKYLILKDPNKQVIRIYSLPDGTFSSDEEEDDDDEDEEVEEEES

What was measured:
[1] = molecular target: Neuropilin-1 (Nrp1), Xenopus laevis (Xenopus laevis (endogenous in embryonic brains and eyes and retinal cultures)) (UniProt P28824); assay: affinity purification with mass spectrometry; IP of endogenous DCC and Nrp1 from Xenopus laevis embryonic brain and eye lysate with antibody-coupled Dynabeads, LC-MS/MS of eluates, triplicate, LFQ intensities against an IgG control pulldown (Perseus, FDR < 0.05)
[2] = molecular target: Neuropilin-1 (Nrp1), Xenopus laevis (Xenopus laevis (endogenous in embryonic brains and eyes and retinal cultures)) (UniProt P28824); assay: as above; remark: listed apart in the source

binding [1]: binds
Molecule: eIF3d, Xenopus laevis (from UniProt Q7ZTM9 1-550)

binding [2]: binds
B1: Staufen1, Xenopus laevis (protein, UniProt Q6GM35 1-708)
chain: MSQAPKSPAAPLPKIQILNKNQHSPLPQPLSIPSTASPLPSENAGRPLQNSALPSPSVTSSGPTAVSSNMANPKEKTPMCLVNELARFNKIQPVYKLLSEQGPAHSKVIPLGRWQDYSLLERVGEERPRQMFTVQLTLGDQYWEAEGTSIKKAQHAAAAKALEGTKYPKPTVRPVRDSITPTVELNALCMKLGRKPIYKPLDPYTGIRSAYNYNMRGGGYPPRYFYPFPVAPILYQVELSVGGQQFHGKGRTRQAAKHDAAARALKSLHHEPLPDKPALNGKAADEENLNKSEISQVFEIALKRNMSVNFEVTKETGPPHMKSFLTKVIVGEFLGEGEGKSKKISKKNAAIAVLEELRKLPPLPTVEKMRPKIKKKTKSIVKLPTSPEYGQGMNPISRLAQIQQAKKGKEPEYILITERGLPRRREFVMQVKVGNHAAEGSGTNKKVAKRNAAENMLEILGFKVPPPPPKPALKTEEKLPVKKPGDGRKVTFYEPGSGEDGANHNKDDEFRMPYHSHQQLPAGILPMVPEVAQAVGVNQGLHTKEFNRVAPNPAKATVTAMIARELLYAGISPTADTILKNNNAAGHVLRGPFTRPSEQLNYLSRVQGLEVEYKDFPKNNKNEFVSLINCSSQPPLISHGIGKDVESCHDMAALNILKLLSELDQQNPEMPRTGNGPMSVCVKPEMESDPLLKPANSNTLGQTLDSTA
